These are yes or no findings as the source states them, for the method shown. Binding seen in cells or lysates may run through a third protein. Some entries that bind do so weakly or less than the wild type. Tags and fused reporters may be left off the sequences shown.
Target: T1, Epitope-tagged SPATA22 (mouse) (UniProt Q5SV06)
T1 sequence: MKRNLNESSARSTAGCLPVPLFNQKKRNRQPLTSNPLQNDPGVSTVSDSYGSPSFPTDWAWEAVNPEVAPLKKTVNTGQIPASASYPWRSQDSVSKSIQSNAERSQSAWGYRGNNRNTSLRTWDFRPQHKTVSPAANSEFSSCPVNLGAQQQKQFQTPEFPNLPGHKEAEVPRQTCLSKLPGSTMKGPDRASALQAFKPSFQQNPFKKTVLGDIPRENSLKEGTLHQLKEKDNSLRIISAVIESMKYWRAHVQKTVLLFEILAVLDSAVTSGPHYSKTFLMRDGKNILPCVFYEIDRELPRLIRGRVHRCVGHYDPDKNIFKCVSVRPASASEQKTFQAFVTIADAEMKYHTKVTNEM
Assay: co-IP; HEK293 cells transfected separately with MEIOB and SPATA22; lysates incubated with DMSO, VER-49009 or isocotoin (20 uM in the lysate) before mixing and co-immunoprecipitation

binding: binds
B1: Epitope-tagged MEIOB (protein, UniProt Q9D513 1-470)
chain: MAKFFALKNFTALSDLHPNMANLKIIGIVIGKTDVKGFPDRKNIGSERYTFSFTIRDSPCHFVNVSSWGSEDYIRSLSESFRVAECVIIENPLIQRKDTEREEKFSPATPSNYKLLLSENHSMVKVCSPYEVDTKLLSLIHLPVKESRDYYSLADIVANGHSLDGRIINVLAAVRSVGEPKYFTTSDRRKGQRCEVKLFDETEPSFTMTCWDNESILLAQSWMARETVIFASDVRINFNKFQNCMAATVISKTIITVNPDTPEANILLNYIRENKETNVADEIDSYLKESVNLNTIVDVYTVEQLKVKALKSEGKADPFYGILYAYISTLNIDDETTKVVRNRCSSCGYIVNEASNTCTICNQDSSRLKSFFLSFDVLVDLTDHTGTLHSCSLSGSIAEETLGCTINEFLTMTSEQKTKLKWQLLLERSKIYLKLILSHRARGGLKVTILSCKLADPTEASRNLARQGHT

Source: article PMC7523692
